## Screening data, single-dose tests

Protein sequences, listed by entry. Tags and fused reporters are not part of them. Residues count along the entry.
UniProt Q8IDJ8, 1-583: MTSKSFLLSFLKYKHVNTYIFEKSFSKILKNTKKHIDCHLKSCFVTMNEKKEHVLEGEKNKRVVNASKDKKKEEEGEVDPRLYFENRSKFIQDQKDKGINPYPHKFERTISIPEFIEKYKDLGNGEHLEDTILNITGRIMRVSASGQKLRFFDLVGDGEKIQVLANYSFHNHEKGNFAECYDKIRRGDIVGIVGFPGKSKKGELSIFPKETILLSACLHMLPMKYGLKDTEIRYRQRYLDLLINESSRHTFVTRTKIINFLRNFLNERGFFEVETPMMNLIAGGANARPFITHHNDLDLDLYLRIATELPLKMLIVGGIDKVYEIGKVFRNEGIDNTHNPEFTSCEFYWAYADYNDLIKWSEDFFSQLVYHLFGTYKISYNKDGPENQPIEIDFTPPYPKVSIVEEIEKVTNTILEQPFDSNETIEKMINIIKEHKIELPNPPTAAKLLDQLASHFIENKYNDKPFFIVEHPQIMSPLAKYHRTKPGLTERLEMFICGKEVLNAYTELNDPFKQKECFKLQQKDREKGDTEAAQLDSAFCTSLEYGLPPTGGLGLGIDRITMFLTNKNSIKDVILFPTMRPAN
UniProt P9WNZ1, whole entry: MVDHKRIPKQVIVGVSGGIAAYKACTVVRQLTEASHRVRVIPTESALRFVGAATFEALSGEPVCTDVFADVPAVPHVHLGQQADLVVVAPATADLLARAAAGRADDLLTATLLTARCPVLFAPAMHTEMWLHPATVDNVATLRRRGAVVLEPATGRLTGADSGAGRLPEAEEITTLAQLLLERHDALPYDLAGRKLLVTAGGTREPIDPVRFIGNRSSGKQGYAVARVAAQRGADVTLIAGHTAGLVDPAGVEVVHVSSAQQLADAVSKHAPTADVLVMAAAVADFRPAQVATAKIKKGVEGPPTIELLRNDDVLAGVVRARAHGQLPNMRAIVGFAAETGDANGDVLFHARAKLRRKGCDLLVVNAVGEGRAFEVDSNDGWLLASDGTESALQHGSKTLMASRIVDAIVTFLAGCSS

Measurements from “University of Dundee, Small-Polar-MMV Screening Library” (2021), ChEMBL document CHEMBL3988442.

Values are the deposited “Percent Effect”, in %.
How 0% and 100% were set is not recorded. Most values in the screen are low, and negative values occur.
This is an unselected part of the compounds tested.

PfKRS1: 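Enzyme assay of the cytosolic lysyl-tRNA synthetase in 384-well plates, read by luminescence. Target: Lysine-tRNA ligase, Plasmodium falciparum 3D7 (UniProt Q8IDJ8). Compounds at 30 µM. Higher reads as stronger inhibition, judged from the few compounds that gave an IC50. About 69,000 compounds were tested under these conditions; 0.071% (about 49) showed 50% or more at least once.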
Toxoplasma: 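Assay of Toxoplasma gondii numbers, read through their beta-galactosidase reporter with a colour substrate. Tested at 10 µM. The record gives no direction; the compounds picked for IC50 retests had high values, so higher reads as fewer parasites. About 67,000 compounds were tested under these conditions; 0.38% (about 260) showed 50% or more at least once.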
CoaBC: 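Enzyme assay of CoaBC with a phosphate dye (Biomol Green) read at 650 nm. Target: Coenzyme A biosynthesis protein CoaBC, Mycobacterium tuberculosis (UniProt P9WNZ1). Tested at 30 µM. Direction is inferred from only a few compounds that gave an IC50; most scored high, so higher reads as stronger inhibition. Most strong results did not repeat in a second test. Size under these conditions: about 67,000 compounds, about 40 of them at 50% or above in at least one test.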

{"smiles": "CC(C)c1nccc(CN2CCC(c3nc4ccccc4n3C)CC2)n1", "PfKRS1": 3.85, "Toxoplasma": -18.34, "CoaBC": 3.053}
{"smiles": "CNC(=O)N1C[C@H]2CC[C@@]3(N=C(c4ccccc4)NC3=O)[C@H]2C1", "PfKRS1": -3.108, "CoaBC": -4.545}
{"smiles": "CC(C)(C)c1ncc(CNCC2CN(C3CC3)CCO2)s1", "stereo": "stereo not given", "PfKRS1": 0.7348, "Toxoplasma": 11.16, "CoaBC": 3.471}
{"smiles": "Cc1cc(C(F)(F)F)nn1CC(C)C(=O)Nc1ccncc1", "stereo": "stereo not given", "PfKRS1": 2.717, "Toxoplasma": 1.076, "CoaBC": -5.518}
{"smiles": "Cn1cc(CNCCNc2ncc(Cl)cc2Cl)cn1", "PfKRS1": 0.08946, "Toxoplasma": 1.606, "CoaBC": 0.1274}
{"smiles": "Cc1ccc(C)c(CS(=O)(=O)Cc2ccn(C)c(=O)c2)c1", "PfKRS1": 3.927, "Toxoplasma": 1.661, "CoaBC": 13.49}
{"smiles": "Cc1ccc(-c2nn(-c3cccc(F)c3)cc2CN(C)CCO)o1", "PfKRS1": 6.085, "Toxoplasma": 5.589, "CoaBC": -18.06}
{"smiles": "Cc1cc(C)n(CCN(C)Cc2c[nH]nc2-c2ccc3c(c2)OCO3)n1", "PfKRS1": -2.808, "Toxoplasma": -0.2011, "CoaBC": 7.348}
{"smiles": "O=C(O)C(F)(F)F.[H][C@@]12C[C@@H](C(=O)NC(C)C)C[C@@]1([H])N(Cc1ccco1)CCO2", "Toxoplasma": 0}
{"smiles": "COc1cc(CNC2CCc3nc(C(C)C)nn3C2)cc2c1OCO2", "stereo": "stereo not given", "PfKRS1": 0.7181, "Toxoplasma": -8.098, "CoaBC": 11.19}
{"smiles": "Fc1cnccc1CN1CCC2(CCN2c2ncccn2)C1", "stereo": "stereo not given", "PfKRS1": 5.78, "CoaBC": 8.411}
{"smiles": "CCCc1cc(NC(=O)c2cccc(N3CCCNC3=O)c2)n[nH]1", "PfKRS1": 6.089, "Toxoplasma": -2.982, "CoaBC": -4.339}
{"smiles": "CCn1c(C2CCCN(S(=O)(=O)C3CC3)C2)nn(CCN(C)C)c1=O", "stereo": "stereo not given", "PfKRS1": 10.8, "Toxoplasma": -5.677, "CoaBC": -3.498}
{"smiles": "Cn1cnc(S(=O)(=O)NCCCN2CCCCCC2)c1Cl", "PfKRS1": 3.757, "Toxoplasma": 2.01, "CoaBC": 6.762}
{"smiles": "Cc1c(I)cccc1C(=O)NCC1(CO)CC1", "PfKRS1": -0.7169, "Toxoplasma": -3.462, "CoaBC": 6.61}
{"smiles": "CC(C)c1cc(NC(=O)Cn2ccc(=O)c3ccccc32)[nH]n1", "PfKRS1": -1.334, "Toxoplasma": -14.27, "CoaBC": 7.753}
{"smiles": "COc1ccc(CN2CCC3(CCN(c4cccnc4)C3=O)C2)cc1", "stereo": "stereo not given", "PfKRS1": 2.213, "CoaBC": 2.28}
{"smiles": "Cc1nc(CN2CCCC(NCc3csc(C(C)(C)C)n3)C2)no1", "stereo": "stereo not given", "PfKRS1": 0.6804, "Toxoplasma": 11.06, "CoaBC": 3.742}
{"smiles": "Cc1cnc(NC(=O)N2CCCC2)s1", "PfKRS1": 1.812, "Toxoplasma": 2.18, "CoaBC": -11.01}

The last 2 entries again:

| SMILES | PfKRS1 | Toxoplasma | CoaBC |
|---|---|---|---|
| `Cc1nc(CN2CCCC(NCc3csc(C(C)(C)C)n3)C2)no1` (stereo not given) | 0.6804 | 11.06 | 3.742 |
| `Cc1cnc(NC(=O)N2CCCC2)s1` | 1.812 | 2.18 | -11.01 |